Assay results: patent publication US20050244864A1, “Development and use of fluorescent probes of unbound analytes” (priority 2004, published 2005)

Assay: Mutant probe screening: baseline fluorescence ratio Ro and fatty acid response phenotype
Assay type: binding
Conditions: fluorescence ratio for zero FFAu concentration
Protocol: The intensity ratio (“R” value) for a given probe is determined. The ratio is calculated using the following formula: R=Fλ1/Fλ2 wherein, Fλ1, is the measured fluorescence intensities (intensity of sample with probe present minus intensity of sample without probe present) at wavelength 1 and Fλ2 is the measured fluorescence intensities (intensity of sample with probe present minus intensity of sample without probe present) at wavelength 2. Then, for a given probe, ΔR, the difference in R value between the measurement in the presence of the analyte and in the absence of the analyte, is calculated as follows: ΔR=R+analyte−R0 The ΔR value for a given probe is then compared to a reference probe, for example, ADIFAB or ADIFAB2, by ΔR/ΔRreference. This value is an indication of how dissimilar the new probe (derived by mutation of the template) is to the reference. By this method, probes with new and useful characteristics may be identified. Measurements of fluorescence intensities are obtained using standard techniques.
Plates were prepared and read in two stages. First, complexes and fatty acid free BSA were diluted to 6 μM BSA in HEPES and added to the 96-well plate at 300 μL per well. A MultiProbe II HT (Perkin Elmer) (an automated liquid handling system) was used to facilitate plate preparation for high throughput screening, but any automated or manual pipetting system will suffice. The background fluorescence was then measured at the same wavelengths as used for ADIFAB2 using a Fluorolog-3 spectrofluorometer with an external Micromax 384 fluorescence plate reader (Jobin Yvon). In the second stage, 30 μL aliquots of the mutant probes were added to multiple wells of the plate, one for each fatty acid and one with fatty acid free BSA only, and the fluorescence intensity at each wavelength was again measured on the plate reader. After subtraction of the background fluorescence, the fluorescence ratio of each well was calculated.
The fluorescence response was quantitatively compared to ADIFAB2 to search for changes in magnitude and fatty acid profile; for example the response to one fatty acid relative to another. For each probe the ratio differences (AR) between wells with each fatty acid compared to a corresponding well with fatty acid free BSA were recorded. The relative response compared to ADIFAB2 was calculated by dividing AR for each fatty acid by that for ADIFAB2 (ΔR/ΔRAD2). Probes that show large (ΔR/ΔRAD2) and different (ΔR/ΔRAD2) for different fatty acids were chosen for larger scale production and calibration. The methods described above can be used to screen other fatty acids and/or other unbound metabolites using other plate readers. We have attained equivalent results, for example, using the Gemini EM dedicated fluorescence plate reader (Molecular Devices).
Screening was conducted by evaluating ΔR/ΔRreference as described in paragraphs 0053-0055 and Example 1 for the following fatty acids: palmitate, palmitoleate, stearate, oleate, linoleate, linolenate and arachidonate, where the reference was to ADIFAB2. The screening rate was increased by use of 384 well plates. In this case the total well volume was reduced to 100 μL and the volume of probe used per well was 10 μL. Because the identity of each mutant probe was unknown in this example, the probes of interest were organized according to phenotype. Typically, phenotypic clusters could be generated by grouping unknown probes that gave Ro and ΔR/ΔRAD2 values within 10 to 20% of each other. The clone ID specifies the second library and well position of each clone. The fluorescence ratio for zero FFAu concentration (Ro) is shown in the second column. The remaining 7 columns are the ratios of the fluorescence response (R-Ro) for each probe relative to ADIFAB2 for arachidonate, linolenate, linoleate, oleate, palmitate, palmitoleate and stearate. […]

Row | Molecule | Ro
1 | L72A: acrylodan-labeled rI-FABP clone with L72A (the template mutein) (protein, listed as Rattus norvegicus, acrylodan label; MUTAGEN (72)...(72) rat intestinal fatty acid binding protein with alanine substitution for leucine at position 72) AFDGTWKVDRNENYEKFMEKMGINVVKRKLGAHDNLKLTITQEGNKFTVKESSNFRNIDVVFELGVDFAYSAADGTELTGTWTMEGNKLVGKFKRVDNGKELIAVREISGNELIQTYTYEGVEAKRIFKKDRGHHHHHH | 0.17
2 | L2P12 G9: acrylodan-labeled rI-FABP-L72A mutein: M18 L, G31 WT, F55 WT, A73 V (protein, UniProt P02693 2-132, looked up, variant M18L L72A A73V, acrylodan label, acrylodan-labeled rI-FABP-L72A mutein: M18 L, G31 WT, F55 WT, A73 V) Fatty acid-binding protein, …: AFDGTWKVDRNENYEKFLEKMGINVVKRKLGAHDNLKLTITQEGNKFTVKESSNFRNIDVVFELGVDFAYSAVDGTELTGTWTMEGNKLVGKFKRVDNGKELIAVREISGNELIQTYTYEGVEAKRIFKKE | 0.45
3 | L72M: acrylodan-labeled rI-FABP mutein L72M (protein) AFDGTWKVDRNENYEKFMEKMGINVVKRKLGAHDNLKLTITQEGNKFTVKESSNFRNIDVVFELGVDFAYSMADGTELTGTWTMEGNKLVGKFKRVDNGKELIAVREISGNELIQTYTYEGVEAKRIFKKE | 0.38
4 | L2P21 C1: acrylodan-labeled rI-FABP-L72A mutein: M18 I, G31 Y, F55 WT, A73 V (protein, UniProt P02693 2-132, looked up, variant M18I G31Y L72A A73V, acrylodan label, acrylodan-labeled rI-FABP-L72A mutein: M18 I, G31 Y, F55 WT, A73 V) Fatty acid-binding protein, …: AFDGTWKVDRNENYEKFIEKMGINVVKRKLYAHDNLKLTITQEGNKFTVKESSNFRNIDVVFELGVDFAYSAVDGTELTGTWTMEGNKLVGKFKRVDNGKELIAVREISGNELIQTYTYEGVEAKRIFKKE | 0.39
5 | A73F, L72A: acrylodan-labeled rI-FABP mutein A73F, L72A (protein) AFDGTWKVDRNENYEKFMEKMGINVVKRKLGAHDNLKLTITQEGNKFTVKESSNFRNIDVVFELGVDFAYSAFDGTELTGTWTMEGNKLVGKFKRVDNGKELIAVREISGNELIQTYTYEGVEAKRIFKKE | 0.33
6 | L1P12 G10: acrylodan-labeled rI-FABP mutein: Y14 I, L38 wt, L72 wt, Y117 wt (protein, UniProt P02693 2-132, looked up, variant Y14I, acrylodan label) Fatty acid-binding protein, …: AFDGTWKVDRNENIEKFMEKMGINVVKRKLGAHDNLKLTITQEGNKFTVKESSNFRNIDVVFELGVDFAYSLADGTELTGTWTMEGNKLVGKFKRVDNGKELIAVREISGNELIQTYTYEGVEAKRIFKKE | 0.35
7 | L78F, L72A: acrylodan-labeled rI-FABP mutein L78F, L72A (protein) AFDGTWKVDRNENYEKFMEKMGINVVKRKLGAHDNLKLTITQEGNKFTVKESSNFRNIDVVFELGVDFAYSAADGTEFTGTWTMEGNKLVGKFKRVDNGKELIAVREISGNELIQTYTYEGVEAKRIFKKE | 0.35
8 | L72G: acrylodan-labeled rI-FABP mutein L72G (protein) AFDGTWKVDRNENYEKFMEKMGINVVKRKLGAHDNLKLTITQEGNKFTVKESSNFRNIDVVFELGVDFAYSGADGTELTGTWTMEGNKLVGKFKRVDNGKELIAVREISGNELIQTYTYEGVEAKRIFKKE | 0.28
9 | D74F, L72A: acrylodan-labeled rI-FABP mutein D74F, L72A (protein) AFDGTWKVDRNENYEKFMEKMGINVVKRKLGAHDNLKLTITQEGNKFTVKESSNFRNIDVVFELGVDFAYSAAFGTELTGTWTMEGNKLVGKFKRVDNGKELIAVREISGNELIQTYTYEGVEAKRIFKKE | 0.25
10 | R106W, L72A: acrylodan-labeled rI-FABP mutein R106W, L72A (protein) AFDGTWKVDRNENYEKFMEKMGINVVKRKLGAHDNLKLTITQEGNKFTVKESSNFRNIDVVFELGVDFAYSAADGTELTGTWTMEGNKLVGKFKRVDNGKELIAVWEISGNELIQTYTYEGVEAKRIFKKE | 0.24
11 | Y117A, L72A: acrylodan-labeled rI-FABP mutein Y117A, L72A (protein) AFDGTWKVDRNENYEKFMEKMGINVVKRKLGAHDNLKLTITQEGNKFTVKESSNFRNIDVVFELGVDFAYSAADGTELTGTWTMEGNKLVGKFKRVDNGKELIAVREISGNELIQTATYEGVEAKRIFKKE | 0.28
12 | L1P7 B11: acrylodan-labeled rI-FABP mutein: Y14 I, L38 I, L72 V, Y117 wt (protein, UniProt P02693 2-132, looked up, variant Y14I L38I L72V, acrylodan label, acrylodan-labeled rI-FABP mutein: Y14 I, L38 I, L72 V, Y117 wt) Fatty acid-binding protein, …: AFDGTWKVDRNENIEKFMEKMGINVVKRKLGAHDNLKITITQEGNKFTVKESSNFRNIDVVFELGVDFAYSVADGTELTGTWTMEGNKLVGKFKRVDNGKELIAVREISGNELIQTYTYEGVEAKRIFKKE | 0.21
13 | L1P2 F7: acrylodan-labeled rI-FABP mutein: Y14 I, L38 wt, L72 G, Y117 V (protein, UniProt P02693 2-132, looked up, variant Y14I L72G Y117V, acrylodan label, acrylodan-labeled rI-FABP mutein: Y14 I, L38 wt, L72 G, Y117 V) Fatty acid-binding protein, …: AFDGTWKVDRNENIEKFMEKMGINVVKRKLGAHDNLKLTITQEGNKFTVKESSNFRNIDVVFELGVDFAYSGADGTELTGTWTMEGNKLVGKFKRVDNGKELIAVREISGNELIQTVTYEGVEAKRIFKKE | 0.32
14 | W82F, L72A: acrylodan-labeled rI-FABP mutein W82F, L72A (protein) AFDGTWKVDRNENYEKFMEKMGINVVKRKLGAHDNLKLTITQEGNKFTVKESSNFRNIDVVFELGVDFAYSAADGTELTGTFTMEGNKLVGKFKRVDNGKELIAVREISGNELIQTYTYEGVEAKRIFKKE | 0.27
15 | L1P12 F12: acrylodan-labeled rI-FABP mutein: Y14 L, L38 wt, L72 G, Y117 V (protein, UniProt P02693 2-132, looked up, variant Y14L L72G Y117V, acrylodan label, acrylodan-labeled rI-FABP mutein: Y14 L, L38 wt, L72 G, Y117 V) Fatty acid-binding protein, …: AFDGTWKVDRNENLEKFMEKMGINVVKRKLGAHDNLKLTITQEGNKFTVKESSNFRNIDVVFELGVDFAYSGADGTELTGTWTMEGNKLVGKFKRVDNGKELIAVREISGNELIQTVTYEGVEAKRIFKKE | 0.28
16 | A73I, L72A: acrylodan-labeled rI-FABP mutein A73I, L72A (protein) AFDGTWKVDRNENYEKFMEKMGINVVKRKLGAHDNLKLTITQEGNKFTVKESSNFRNIDVVFELGVDFAYSAIDGTELTGTWTMEGNKLVGKFKRVDNGKELIAVREISGNELIQTYTYEGVEAKRIFKKE | 0.27
17 | Y117S, L72A: acrylodan-labeled rI-FABP mutein Y117S, L72A (protein) AFDGTWKVDRNENYEKFMEKMGINVVKRKLGAHDNLKLTITQEGNKFTVKESSNFRNIDVVFELGVDFAYSAADGTELTGTWTMEGNKLVGKFKRVDNGKELIAVREISGNELIQTSTYEGVEAKRIFKKE | 0.36

Same assay, conditions: fluorescence ratio for zero FFAu concentration; listed as L2P12G9

Row | Molecule | Ro
18 | L2P12 G9: acrylodan-labeled rI-FABP-L72A mutein: M18 L, G31 WT, F55 WT, A73 V (protein, UniProt P02693 2-132, looked up, variant M18L L72A A73V, acrylodan label, acrylodan-labeled rI-FABP-L72A mutein: M18 L, G31 WT, F55 WT, A73 V) Fatty acid-binding protein, …: AFDGTWKVDRNENYEKFLEKMGINVVKRKLGAHDNLKLTITQEGNKFTVKESSNFRNIDVVFELGVDFAYSAVDGTELTGTWTMEGNKLVGKFKRVDNGKELIAVREISGNELIQTYTYEGVEAKRIFKKE | 0.46

Same assay, conditions: fluorescence ratio for zero FFAu concentration; listed as L2P21C1

Row | Molecule | Ro
19 | L2P21 C1: acrylodan-labeled rI-FABP-L72A mutein: M18 I, G31 Y, F55 WT, A73 V (protein, UniProt P02693 2-132, looked up, variant M18I G31Y L72A A73V, acrylodan label, acrylodan-labeled rI-FABP-L72A mutein: M18 I, G31 Y, F55 WT, A73 V) Fatty acid-binding protein, …: AFDGTWKVDRNENYEKFIEKMGINVVKRKLYAHDNLKLTITQEGNKFTVKESSNFRNIDVVFELGVDFAYSAVDGTELTGTWTMEGNKLVGKFKRVDNGKELIAVREISGNELIQTYTYEGVEAKRIFKKE | 0.36
